PubChem BioAssay AID1259254 | NCATS, 2017
Aim: 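Genome-wide screen for genes that prevent DNA re-replication in cancer cells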 (primary screen). Cells: human HCT116 colorectal cancer cells. Reagents: single siRNA against human genes. Time to read-out: 3 days. Detection: 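Imaged Hoechst DNA stain sorts each cell into a cycle phase by DNA amount; per plate, G2 fraction set to 0% for non-targeting and 100% for GMNN siRNA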. Scale: G2 robust z-score: higher = more G2 cells, more excess DNA replication. Rule for the call: 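Active siRNAs have a G2 robust z of 5 or more median absolute deviations over the median, which in these data means about 38% or higher of GMNN control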.
The deposit covers about 59,000 reagents; this is a part drawn at random. Over the whole deposit, about 1,550 (2.6%) are marked active. 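G2 share is only a proxy for re-replication; each gene was hit by three separate siRNAs, and active genes were retested.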 Reagents against one gene are numbered here. Further read-outs or replicates are left out here. Not given: the amount of reagent.

WBP11 (WW domain binding protein 11) #1 | G2 robust z-score: 0.592; Outcome: inactive
WBP11 (WW domain binding protein 11) #2 | G2 robust z-score: -0.168; Outcome: inactive
WBP11 (WW domain binding protein 11) #3 | G2 robust z-score: 0.165; Outcome: inactive
CAMTA1 (calmodulin binding transcription activator 1) #1 | G2 robust z-score: 1.25; Outcome: inactive
CAMTA1 (calmodulin binding transcription activator 1) #2 | G2 robust z-score: 0.327; Outcome: inactive
CAMTA1 (calmodulin binding transcription activator 1) #3 | G2 robust z-score: -0.588; Outcome: inactive
RASL11B (RAS like family 11 member B) #1 | G2 robust z-score: -1.04; Outcome: inactive
RASL11B (RAS like family 11 member B) #2 | G2 robust z-score: -1.06; Outcome: inactive
RASL11B (RAS like family 11 member B) #3 | G2 robust z-score: -0.0192; Outcome: inactive
SMYD2 (SET and MYND domain containing 2) #1 | G2 robust z-score: -0.0255; Outcome: inactive
SMYD2 (SET and MYND domain containing 2) #2 | G2 robust z-score: -0.647; Outcome: inactive
SMYD2 (SET and MYND domain containing 2) #3 | G2 robust z-score: 1.95; Outcome: inactive
CRHBP (corticotropin releasing hormone binding protein) #1 | G2 robust z-score: -0.87; Outcome: inactive
CRHBP (corticotropin releasing hormone binding protein) #2 | G2 robust z-score: -0.354; Outcome: inactive
CRHBP (corticotropin releasing hormone binding protein) #3 | G2 robust z-score: -1.38; Outcome: inactive
SCAND3 (SCAN domain containing 3) #1 | G2 robust z-score: 0.472; Outcome: inactive
SCAND3 (SCAN domain containing 3) #2 | G2 robust z-score: -0.967; Outcome: inactive
SCAND3 (SCAN domain containing 3) #3 | G2 robust z-score: -0.307; Outcome: inactive
TUBGCP5 (tubulin gamma complex component 5) #1 | G2 robust z-score: 0.189; Outcome: inactive
TUBGCP5 (tubulin gamma complex component 5) #2 | G2 robust z-score: 0.156; Outcome: inactive
TUBGCP5 (tubulin gamma complex component 5) #3 | G2 robust z-score: -0.457; Outcome: inactive
GLIPR1 (GLI pathogenesis related 1) #1 | G2 robust z-score: 0.403; Outcome: inactive
GLIPR1 (GLI pathogenesis related 1) #2 | G2 robust z-score: 0.992; Outcome: inactive
GLIPR1 (GLI pathogenesis related 1) #3 | G2 robust z-score: -1.08; Outcome: inactive
SERHL (serine hydrolase like (pseudogene)) #1 | G2 robust z-score: -0.136; Outcome: inactive
SERHL (serine hydrolase like (pseudogene)) #2 | G2 robust z-score: 1.5; Outcome: inactive
SERHL (serine hydrolase like (pseudogene)) #3 | G2 robust z-score: -0.587; Outcome: inactive
SETDB1 (SET domain bifurcated histone lysine methyltransferase 1) #1 | G2 robust z-score: 1.54; Outcome: inactive
SETDB1 (SET domain bifurcated histone lysine methyltransferase 1) #2 | G2 robust z-score: -0.499; Outcome: inactive
SETDB1 (SET domain bifurcated histone lysine methyltransferase 1) #3 | G2 robust z-score: -0.0523; Outcome: inactive

Part of the list above, set out differently.
gene knocked down	siRNA no.	G2 robust z-score	Outcome
SERHL (serine hydrolase like (pseudogene))	2	1.5	inactive
SERHL (serine hydrolase like (pseudogene))	3	-0.587	inactive
